{"source": "PubChem BioAssay AID743454 | Peter MacCallum Cancer Centre | 2014", "screen": "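Knock-downs lowering viability or raising caspase 3/7 activity in vorinostat-treated resistant cells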 (primary screen)", "cells": "human HCT116-VR colon cancer cells, selected for vorinostat resistance", "knock-down reagent": "siRNA pool against human genes, 40 nM siRNA pool", "timing": "vorinostat for 24 h, read-out about 72 h after transfection", "challenge": "vorinostat at 2.5 µM final", "measurement": "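Two measures, CellTiter-Fluor viability and luminescent caspase 3/7 activity, each as fold change against same-plate mock wells, mean of duplicates, then screen-wide robust z-score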", "direction": "viability robust z-score: higher = more viable cells than screen typical; caspase robust z-score: higher = more caspase 3/7 activity than screen typical", "active means": "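a knock-down is a hit when classed RV1 or RV2 for lowered viability, or CA1 or CA2 for caspase activation; those lethal without drug were dropped; hits were retested singly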", "note": "In all, the deposit lists about 18,000 reagents; below is a random part of them. Of all reagents, 450 (2.5%) are marked active. 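Single biological run; no consistent viability z cut-off exists, so the class columns, not z-scores, define the calls.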"}
{"target gene": "NACA2 (GeneID 342538)", "viability hit class": "no change", "caspase hit class": "no change", "viability robust z-score": -0.68, "caspase robust z-score": -1.06, "Call": "inactive"}
{"target gene": "TENT5B (GeneID 115572)", "viability hit class": "no change", "caspase hit class": "no change", "viability robust z-score": -0.8, "caspase robust z-score": 1.55, "Call": "inactive"}
{"target gene": "FBXO38 (GeneID 81545)", "viability hit class": "no change", "caspase hit class": "no change", "viability robust z-score": -0.4, "caspase robust z-score": -0.66, "Call": "inactive"}
{"target gene": "CCL24 (GeneID 6369)", "viability hit class": "no change", "caspase hit class": "no change", "viability robust z-score": -0.2, "caspase robust z-score": -0.08, "Call": "inactive"}
{"target gene": "TG (GeneID 7038)", "viability hit class": "no change", "caspase hit class": "no change", "viability robust z-score": 0.62, "caspase robust z-score": 1.54, "Call": "inactive"}
{"target gene": "UCK1 (GeneID 83549)", "viability hit class": "no change", "caspase hit class": "no change", "viability robust z-score": -1.16, "caspase robust z-score": 1.25, "Call": "inactive"}
{"target gene": "ULBP3 (GeneID 79465)", "viability hit class": "no change", "caspase hit class": "no change", "viability robust z-score": -1.32, "caspase robust z-score": -0.54, "Call": "inactive"}
{"target gene": "RMC1 (GeneID 29919)", "viability hit class": "no change", "caspase hit class": "no change", "viability robust z-score": 1.25, "caspase robust z-score": 0.58, "Call": "inactive"}
{"target gene": "GABRA5 (GeneID 2558)", "viability hit class": "no change", "caspase hit class": "no change", "viability robust z-score": -1.1, "caspase robust z-score": 0.04, "Call": "inactive"}
{"target gene": "GPR83 (GeneID 10888)", "viability hit class": "no change", "caspase hit class": "no change", "viability robust z-score": 0.31, "caspase robust z-score": -0.57, "Call": "inactive"}
{"target gene": "ACY1 (GeneID 95)", "viability hit class": "no change", "caspase hit class": "no change", "viability robust z-score": -1.38, "caspase robust z-score": 3.59, "Call": "inactive"}
{"target gene": "RHOBTB2 (GeneID 23221)", "viability hit class": "no change", "caspase hit class": "no change", "viability robust z-score": 2.43, "caspase robust z-score": -0.58, "Call": "inactive"}
{"target gene": "CCL16 (GeneID 6360)", "viability hit class": "no change", "caspase hit class": "no change", "viability robust z-score": -0.7, "caspase robust z-score": -0.68, "Call": "inactive"}
{"target gene": "C21orf58 (GeneID 54058)", "viability hit class": "no change", "caspase hit class": "no change", "viability robust z-score": -1.79, "caspase robust z-score": 2.41, "Call": "inactive"}
{"target gene": "OR1L6 (GeneID 392390)", "viability hit class": "no change", "caspase hit class": "no change", "viability robust z-score": -1.21, "caspase robust z-score": 0.42, "Call": "inactive"}
{"target gene": "EIF1AY (GeneID 9086)", "viability hit class": "no change", "caspase hit class": "no change", "viability robust z-score": 1.82, "caspase robust z-score": -1.19, "Call": "inactive"}
{"target gene": "ENHO (GeneID 375704)", "viability hit class": "no change", "caspase hit class": "no change", "viability robust z-score": 0.69, "caspase robust z-score": -0.29, "Call": "inactive"}
{"target gene": "ZNF692 (GeneID 55657)", "viability hit class": "no change", "caspase hit class": "no change", "viability robust z-score": -0.01, "caspase robust z-score": -0.82, "Call": "inactive"}
{"target gene": "TBPL1 (GeneID 9519)", "viability hit class": "no change", "caspase hit class": "no change", "viability robust z-score": -0.32, "caspase robust z-score": -0.26, "Call": "inactive"}
{"target gene": "FBXO32 (GeneID 114907)", "viability hit class": "no change", "caspase hit class": "no change", "viability robust z-score": 0.88, "caspase robust z-score": -0.49, "Call": "inactive"}
{"target gene": "ESCO1 (GeneID 114799)", "viability hit class": "no change", "caspase hit class": "no change", "viability robust z-score": 0.81, "caspase robust z-score": 0.17, "Call": "inactive"}
